This test addresses Dual specificity tyrosine-phosphorylation-regulated kinase 1B (Homo sapiens, UniProt Q9Y463). The test is described as follows: Binding affinity to wild-type human full length DYRK1B (M1 to S629 residues) expressed in bacterial expression system measured after 1 hr by competitive binding assay.

Chains of the proteins cited; added tags and fusions are not shown.
UniProt Q9Y463, whole entry: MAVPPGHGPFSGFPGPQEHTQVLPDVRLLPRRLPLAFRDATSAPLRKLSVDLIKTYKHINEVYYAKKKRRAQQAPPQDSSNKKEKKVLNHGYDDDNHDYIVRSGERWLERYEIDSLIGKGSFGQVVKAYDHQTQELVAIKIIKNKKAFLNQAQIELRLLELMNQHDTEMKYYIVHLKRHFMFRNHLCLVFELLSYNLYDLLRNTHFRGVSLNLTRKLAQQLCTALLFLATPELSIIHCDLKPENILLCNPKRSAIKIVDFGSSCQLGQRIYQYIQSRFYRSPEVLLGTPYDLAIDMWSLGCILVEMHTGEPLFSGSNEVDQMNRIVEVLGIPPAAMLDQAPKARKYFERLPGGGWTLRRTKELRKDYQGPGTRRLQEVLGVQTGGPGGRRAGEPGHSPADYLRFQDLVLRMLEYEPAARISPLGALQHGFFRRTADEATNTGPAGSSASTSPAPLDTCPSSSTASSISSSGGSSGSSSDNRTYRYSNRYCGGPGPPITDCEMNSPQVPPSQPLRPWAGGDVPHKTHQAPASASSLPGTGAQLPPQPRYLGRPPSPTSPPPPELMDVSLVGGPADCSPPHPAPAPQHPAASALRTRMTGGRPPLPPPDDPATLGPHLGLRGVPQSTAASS

pKd: −log10 of the molar value.

`CN(C)c1nccc(-c2cnn3ncccc23)n1`: the pKd (in general, the negative decadic logarithm of the Kd, by convention in mol/L) was 7.25.

(Values after ChEMBL document CHEMBL4808225, “Discovery and Characterization of Selective and Ligand-Efficient DYRK Inhibitors” (J Med Chem, 2021).)
